The record followed here is publication doi:10.1101/2021.03.31.437821.

By UniProt entry, the sequences of proteins in these tests, tags left out.
UniProt P49902, whole entry: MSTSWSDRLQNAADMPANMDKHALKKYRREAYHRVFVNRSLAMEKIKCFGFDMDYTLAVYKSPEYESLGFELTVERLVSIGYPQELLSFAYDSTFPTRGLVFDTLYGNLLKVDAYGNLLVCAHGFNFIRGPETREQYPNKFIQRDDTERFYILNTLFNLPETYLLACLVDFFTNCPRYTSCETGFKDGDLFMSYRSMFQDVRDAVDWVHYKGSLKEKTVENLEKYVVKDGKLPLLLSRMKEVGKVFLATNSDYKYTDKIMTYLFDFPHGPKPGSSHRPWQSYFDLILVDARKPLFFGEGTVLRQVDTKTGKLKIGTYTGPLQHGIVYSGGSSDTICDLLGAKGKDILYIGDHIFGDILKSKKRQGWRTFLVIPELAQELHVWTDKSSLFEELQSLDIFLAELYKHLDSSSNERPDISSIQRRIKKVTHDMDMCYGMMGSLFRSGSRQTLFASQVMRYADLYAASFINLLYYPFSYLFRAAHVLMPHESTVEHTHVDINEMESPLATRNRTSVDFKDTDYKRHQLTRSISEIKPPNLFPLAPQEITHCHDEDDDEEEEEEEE

The assay deals with Myc-NT5C2 (5'-nucleotidase, cytosolic II) (human) (UniProt P49902). Nature of the assay: co-IP.

No constants are given. Whether binding was seen depends on the method and setting. In cells and extracts the contact can be indirect. Some entries that bind do so weakly or less than the wild type. Where a sequence is shown, tags or fusion partners need not be part of it.

B1: HA-ZNF804A (zinc finger protein 804A) (protein, UniProt Q7Z570 1-1209)
chain: MECYYIVISSTHLSNGHFRNIKGVFRGPLSKNGNKTLDYAEKENTIAKALEDLKANFYCELCDKQYYKHQEFDNHINSYDHAHKQRLKELKQREFARNVASKSRKDERKQEKALQRLHKLAELRKETVCAPGSGPMFKSTTVTVRENCNEISQRVVVDSVNNQQDFKYTLIHSEENTKDATTVAEDPESANNYTAKNNQVGDQAQGIHRHKIGFSFAFPKKASVKLESSAAAFSEYSDDASVGKGFSRKSRFVPSACHLQQSSPTDVLLSSEEKTNSFHPPEAMCRDKETVQTQEIKEVSSEKDALLLPSFCKFQLQLSSDADNCQNSVPLADQIPLESVVINEDIPVSGNSFELLGNKSTVLDMSNDCISVQATTEENVKHNEASTTEVENKNGPETLAPSNTEEVNITIHKKTNFCKRQCEPFVPVLNKHRSTVLQWPSEMLVYTTTKPSISYSCNPLCFDFKSTKVNNNLDKNKPDLKDLCSQQKQEDICMGPLSDYKDVSTEGLTDYEIGSSKNKCSQVTPLLADDILSSSCDSGKNENTGQRYKNISCKIRETEKYNFTKSQIKQDTLDEKYNKIRLKETHEYWFHKSRRKKKRKKLCQHHHMEKTKESETRCKMEAENSYTENAGKYLLEPISEKQYLAAEQLLDSHQLLDKRPKSESISLSDNEEMCKTWNTEYNTYDTISSKNHCKKNTILLNGQSNATMIHSGKHNLTYSRTYCCWKTKMSSCSQDHRSLVLQNDMKHMSQNQAVKRGYNSVMNESERFYRKRRQHSHSYSSDESLNRQNHLPEEFLRPPSTSVAPCKPKKKRRRKRGRFHPGFETLELKENTDYPVKDNSSLNPLDRLISEDKKEKMKPQEVAKIERNSEQTNQLRNKLSFHPNNLLPSETNGETEHLEMETTSGELSDVSNDPTTSVCVASAPTKEAIDNTLLEHKERSENINLNEKQIPFQVPNIERNFRQSQPKSYLCHYELAEALPQGKMNETPTEWLRYNSGILNTQPPLPFKEAHVSGHTFVTAEQILAPLALPEQALLIPLENHDKFKNVPCEVYQHILQPNMLANKVKFTFPPAALPPPSTPLQPLPLQQSLCSTSVTTIHHTVLQQHAAAAAAAAAAAAAGTFKVLQPHQQFLSQIPALTRTSLPQLSVGPVGPRLCPGNQPTFVAPPQMPIIPASVLHPSHLAFPSLPHALFPSLLSPHPTVIPLQPLF
On to B1, for which the binding result is recorded as “binds”.
